# Data reported in US11723961B2, “Maspin, maspin derivatives, and maspin mimetics for reducing ROS, inflammation, and skin aging” (Northwestern University, priority 2014, dated 2023).
# Positions count from the first letter of the chain named.
# B1: triple mutated maspin: thrombin cleaved triple mutated recombinant maspin protein (C183, C205, C323 to serine) (protein, UniProt P36952 1-375, looked up, variant C183S C205S C323S)
# Serpin B5: MDALQLANSAFAVDLFKQLCEKEPLGNVLFSPICLSTSLSLAQVGAKGDTANEIGQVLHFENVKDVPFGFQTVTSDVNKLSSFYSLKLIKRLYVDKSLNLSTEFISSTKRPYAKELETVDFKDKLEETKGQINNSIKDLTDGHFENILADNSVNDQTKILVVNAAYFVGKWMKKFSESETKESPFRVNKTDTKPVQMMNMEATFSMGNIDSINCKIIELPFQNKHLSMFILLPKDVEDESTGLEKIEKQLNSESLSQWTNPSTMANAKVKLSIPKFKVEKMIDPKACLENLGLKHIFSEDTSDFSGMSETKGVALSNVIHKVSLEITEDGGDSIEVPGARILQHKDELNADHPFIYIIRHNKTRNIIFFGKFCSP
# B2: WT maspin: thrombin cleaved WT recombinant maspin protein (protein, UniProt P36952 1-375, looked up)
# Serpin B5: B1 Serpin B5 with S183C, S205C, S323C
# Test: Detection of protein sulfenic acid modifications in vitro (dimedone, Western blot)
# Settings: 62.5 ng protein, H2O2 (1 mM) for 1 minute in presence of dimedone (10 mM)
# Method: Detection of protein sulfenic acid modifications—Detection of protein sulfenic acid in vitro was done as described previously (14,15,27). Briefly, equal amounts (62.5 ng) of thrombin cleaved WT (MpWT) and triple mutated (MpT) recombinant maspin proteins were oxidized with H2O2 (1 mM) for 1 minute in the presence of dimedone (10 mM). The oxidation of cysteine residues was detected by Western blot analysis using an antibody (Millipore; Cat No. 07-2139) that specifically recognizes dimedone derivatized cysteine sulfenic acid residues.
molecule,measurement,value
B1,signal with anti-cysteine sulfenic acid antibody (oxidation of cysteine thiol to sulfenic acid),absence of signal
B2,signal with anti-cysteine sulfenic acid antibody (oxidation of cysteine thiol to sulfenic acid),oxidation of thiol groups to cysteine sulfenic acid
